Laboratory results from PubChem BioAssay (Tox21).
Several values for one entry are separate records, joined by “and”; a condition that tells them apart may be missing. Equal entries are not always repeated. The shares of active, inactive and inconclusive entries below differ from those in the screen. For part of these data: Where the call is inconclusive, the potency comes from a doubtful curve fit. A structure can be active in one record and inactive in another. Activity calls are given as the source filed them. Unless noted, calls come from the whole dose curve.

Protein sequences, listed by entry. Tags and fused reporters are not part of them. Lines headed by an entry give the natural chain unless they say otherwise; changes in a name come on top.
UniProt P28223, whole entry, looked up: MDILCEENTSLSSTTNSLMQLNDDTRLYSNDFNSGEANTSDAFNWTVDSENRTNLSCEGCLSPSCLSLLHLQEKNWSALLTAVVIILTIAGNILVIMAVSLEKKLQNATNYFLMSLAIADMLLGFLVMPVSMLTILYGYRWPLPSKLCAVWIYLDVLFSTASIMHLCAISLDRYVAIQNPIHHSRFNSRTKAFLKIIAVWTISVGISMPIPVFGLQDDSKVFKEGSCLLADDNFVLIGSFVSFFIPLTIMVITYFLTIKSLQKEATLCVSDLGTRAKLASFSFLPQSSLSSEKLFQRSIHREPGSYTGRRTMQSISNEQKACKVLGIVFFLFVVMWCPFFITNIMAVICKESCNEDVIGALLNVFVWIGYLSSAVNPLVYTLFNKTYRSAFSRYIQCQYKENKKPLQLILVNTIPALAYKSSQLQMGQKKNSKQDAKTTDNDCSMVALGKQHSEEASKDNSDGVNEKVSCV
UniProt P14416, whole entry, looked up: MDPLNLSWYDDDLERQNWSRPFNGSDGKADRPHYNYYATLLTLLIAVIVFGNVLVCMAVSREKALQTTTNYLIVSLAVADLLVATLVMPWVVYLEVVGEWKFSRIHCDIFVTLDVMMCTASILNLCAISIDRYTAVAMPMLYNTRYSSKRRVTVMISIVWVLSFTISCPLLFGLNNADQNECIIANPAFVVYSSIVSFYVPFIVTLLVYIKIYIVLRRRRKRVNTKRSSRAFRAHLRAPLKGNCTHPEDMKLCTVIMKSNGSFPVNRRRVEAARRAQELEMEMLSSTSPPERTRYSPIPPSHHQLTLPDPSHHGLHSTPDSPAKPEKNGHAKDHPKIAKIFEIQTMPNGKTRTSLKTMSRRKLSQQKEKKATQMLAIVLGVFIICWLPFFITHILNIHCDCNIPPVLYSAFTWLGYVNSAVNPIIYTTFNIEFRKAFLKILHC
UniProt P11229: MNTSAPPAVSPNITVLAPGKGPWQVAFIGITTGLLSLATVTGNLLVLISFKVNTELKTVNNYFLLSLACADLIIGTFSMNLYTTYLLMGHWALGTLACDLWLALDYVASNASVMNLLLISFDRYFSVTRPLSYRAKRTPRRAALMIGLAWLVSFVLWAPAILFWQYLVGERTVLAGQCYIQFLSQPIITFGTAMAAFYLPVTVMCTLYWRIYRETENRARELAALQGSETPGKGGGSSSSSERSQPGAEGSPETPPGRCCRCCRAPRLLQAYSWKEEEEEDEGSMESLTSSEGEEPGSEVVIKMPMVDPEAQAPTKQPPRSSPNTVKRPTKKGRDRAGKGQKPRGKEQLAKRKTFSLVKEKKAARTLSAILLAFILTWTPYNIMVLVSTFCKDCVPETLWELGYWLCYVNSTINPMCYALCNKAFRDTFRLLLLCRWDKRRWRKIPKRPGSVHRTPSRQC

Legend:
[1] = p53 small molecule agonists, cell-based qHTS assay with human liver microsomes (AID 1963577); conditions: HCT-116 p53RE-bla with human liver microsomes, ratio, 16 h; note: potency is the fitted concentration of half-maximal effect;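 for activation: p53 response element beta-lactamase reporter cells with liver microsomes plus NADPH; % is set by controls: 0 for no effect and ±100 for the full control effect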
Summary of the method: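 p53RE-bla cells; 5 h settle, 37 C/5% CO2; cpd + HLM 0.5 mg/mL + NADPH 0.5 mg/mL (final); 16 h 37 C; LiveBLAzer 2 h RT dark; fluorescence readout.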

[2] = p53 small molecule agonists, cell-based qHTS assay with rat liver microsomes (AID 1963578); conditions: HCT-116 p53RE-bla, beta-lactamase ratio, 16 h; activation: at 66 µM (top of the series) unless noted; note: potency is the fitted concentration of half-maximal effect
Summary of the method: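 Rat liver microsome activation: microsomes 0.5 mg/mL, NADPH 0.5 mg/mL final; p53RE-bla cells, 16 h 37 C; LiveBLAzer readout, 2 h RT dark.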

[3] = p53 small molecule agonists, cell-based qHTS assay with human liver microsomes: qHTS cell viability counter screen (AID 1963579); note: nearly all actives have a fitted effect of over 45% in size; note: potency is the fitted concentration of half-maximal effect
Summary of the method: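 Luminescent CellTiter-Glo read-out, 30 min at room temperature, gauged cytotoxicity in p53RE-bla cells exposed 16 h at 37 C to DMSO-dissolved compounds with metabolic activation by human liver microsomes and NADPH, each 0.5 mg/mL final.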

[4] = p53 small molecule agonists, cell-based qHTS assay with rat liver microsomes: qHTS cell viability counter screen (AID 1963580); note: potency is the fitted concentration of half-maximal effect; nearly all actives have a fitted effect of over 45% in size
Summary of the method: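 p53RE-bla HCT-116 cells were exposed 16 h at 37 C to compounds with rat liver microsomes (0.5 mg/mL) and NADPH (0.5 mg/mL). Viability was measured in the same wells as ATP content by CellTiter-Glo luminescence.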

[5] = p53 small molecule agonists, cell-based qHTS assay (AID 1963582; active = well fitted activation curve with a large enough effect in the signal ratio in the repeat runs, not every such curve was filed as active; inconclusive = weak or mixed curves; the % refers to the signal ratio; note: potency is the fitted concentration of half-maximal effect); conditions: HCT-116 p53RE-bla reporter, beta-lactamase FRET ratio, 16 h; activation: at 66 µM (top of the series) unless noted
Summary of the method: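 Agonist activity was scored from beta-lactamase FRET fluorescence in p53RE-bla cells treated 16 h at 37 C with compounds in DMSO, substrate incubation being 2 h at room temperature.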

[6] = molecular target: 5-hydroxytryptamine receptor 2A (Homo sapiens) (UniProt P28223); experiment: 5-hydroxytryptamine receptor 2A (HTR2A) small molecule antagonists, cell-based qHTS assay (AID 1963586); note: nearly all actives have a fitted effect of over 45% in size; note: potency is the fitted concentration of half-maximal effect
Summary of the method: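 Antagonist-mode intracellular calcium assay: DOI (4 nM) added after 5 min compound pre-incubation at room temperature to dye-loaded HTR2A-CHO cells. Fluorescence followed for 3 min, sampled every second.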

[7] = cAMP Responsive Elements (CRE) small molecule agonists, cell-based qHTS assay (AID 1963590); conditions: CRE-bla HEK293T, beta-lactamase FRET ratio, 3 h; note: potency is the fitted concentration of half-maximal effect; for activation: % is set by controls: 0 for no effect and ±100 for the full control effect
Summary of the method: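 FRET-based beta-lactamase readout (LiveBLAzer B/G, 2 h RT) quantified CRE activation in HEK 293T CRE-bla cells after 3 h treatment with DMSO-dissolved compounds.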

[8] = molecular target: Beta-2 adrenergic receptor (Homo sapiens) (UniProt P07550); experiment: Adrenergic beta2 receptor (ADRB2) small molecule agonists, cell-based qHTS assay (AID 1963593); conditions: CHO-ADRB2 cells, cAMP HTRF, 30 min; activation: at 92.4 µM (top of the series) unless noted; note: potency is the fitted concentration of half-maximal effect;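 for activation: CHO cells stably overexpressing human ADRB2; % is set by controls: 0 for no effect and ±100 for the full control effect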
Summary of the method: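 CHO cells stably over-expressing ADRB2 were plated overnight at 37C, then dosed with compounds plus a stimulation mix containing 100uM IBMX and 25uM Ro-20-1724 for 0.5hr at room temperature. cAMP was measured by HTRF competition, 1hr.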

[9] = molecular target: D(2) dopamine receptor (Homo sapiens) (UniProt P14416); experiment: Dopamine D2 receptor (DRD2) small molecule antagonists, cell-based qHTS assay (AID 1963595; active = well fitted inhibition curve with a large enough effect in the signal ratio in the repeat runs, with a control signal flat; inconclusive = weak or mixed curves, or effect the other way; the % refers to the signal ratio; note: % is set by controls: 0 for no effect and ±100 for the full control effect); conditions: HEK293-DRD2 cAMP HTRF antagonist mode; activity change, negative = inhibition: at 92.4 µM (top of the series) unless noted
Summary of the method: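 HEK293 cells stably expressing DRD2, preincubated with 0.1 mM Ro20-1724 and compounds 10 min, were stimulated with 200 nM NKH477 plus 12 nM quinpirole for 30 min at room temperature; cAMP measured by HTRF (665/620 nm).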

[10] = molecular target: 5-hydroxytryptamine receptor 2A (Homo sapiens) (UniProt P28223); experiment: 5-hydroxytryptamine receptor 2A (HTR2A) small molecule agonists, cell-based qHTS assay (AID 1963587); conditions: HTR2A-CHO cells, calcium flux fluorescence, agonist mode; activation: at 76.8 µM (top of the series); note: % is set by controls: 0 for no effect and ±100 for the full control effect; nearly all actives have a fitted effect of over 30% in size
Summary of the method: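 CHO cells stably expressing human HTR2A, plated 18 h, loaded with calcium dye 1 h at 37 C. Agonist mode: compounds added and intracellular calcium fluorescence recorded kinetically for 2 min at 1 sec intervals.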

[11] = cAMP Responsive Elements (CRE) small molecule antagonists, cell-based qHTS assay (AID 1963591; active = well fitted inhibition curve with a large enough effect in the signal ratio in the repeat runs, not every such curve was filed as active; inconclusive = weak or mixed curves, or effect the other way; the % refers to the signal ratio; note: potency is the fitted concentration of half-maximal effect); conditions: CRE-bla HEK293T, beta-lactamase FRET ratio; activity change, negative = inhibition: at 92.4 µM (top of the series) unless noted
Summary of the method: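 qHTS in CRE-bla HEK 293T cells: compound in DMSO, then 0.25 uM NKH477 (final), 3 h at 37 °C/5% CO2; beta-lactamase FRET read-out after 2 h substrate incubation.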

[12] = G protein-coupled receptor (GPCR) small molecule agonists, calcium flux assay: HEK293 wild type cell line counter screen (AID 1920065); note: potency is the fitted concentration of half-maximal effect
Summary of the method: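 In this agonist-mode screen, ATP is the positive control and DMSO the vehicle. Cells grow 18 h before a 1 h dye incubation at 37 C; signal is taken at Ex/Em 480/540 over 3 min.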

[13] = p53 small molecule agonists, cell-based qHTS assay: qHTS cell viability counter screen (AID 1963581); note: potency is the fitted concentration of half-maximal effect; nearly all actives have a fitted effect of over 45% in size
Summary of the method: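 Compounds are pinned onto HCT-116 p53RE-bla cells and left 16 h at 37 C. Following the reporter FRET read, ATP is quantified by CellTiter-Glo luminescence after 30 min at room temperature.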

[14] = molecular target: Beta-2 adrenergic receptor (Homo sapiens) (UniProt P07550); experiment: Adrenergic beta2 receptor (ADRB2) small molecule antagonists, cell-based qHTS assay (AID 1963592); conditions: CHO-ADRB2 cells, isoproterenol-stimulated cAMP HTRF ratio, 0.5 h; activity change, negative = inhibition: at 92.4 µM (top of the series) unless noted; note: nearly all actives have a fitted effect of over 50% in size; note: potency is the fitted concentration of half-maximal effect
Summary of the method: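 Cells (CHO, stable ADRB2 overexpression) incubated 18-20hr at 37C; compounds added from DMSO; agonist mix (1nM isoproterenol, 100uM IBMX, 25uM Ro-20-1724) added; 0.5hr RT; d2-cAMP and anti-cAMP-cryptate added; 1hr RT; 665/615 nm read.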

[15] = molecular target: Muscarinic acetylcholine receptor M1 (Homo sapiens) (UniProt P11229); experiment: Cholinergic receptor muscarinic 1 (CHRM1) small molecule antagonists, cell-based qHTS assay (AID 1963588); note: potency is the fitted concentration of half-maximal effect; nearly all actives have a fitted effect of over 40% in size
Summary of the method: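 CHRM1-CHO calcium-flux assay, antagonist mode. Cells were seeded 18 h, dye-loaded 1 h at 37 C and given compound for 5 min at RT, then acetylcholine was added at 50nM. FDSS fluorescence was read 3 min; 15 concentrations, three runs.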

[16] = activation: at 66 µM (top of the series) unless noted
[17] = activation: at 92.4 µM (top of the series) unless noted

O=P(Oc1ccccc1)(Oc1ccccc1)Oc1ccccc1
Potency [1, 16]: inconclusive: 36.3 µM [rising, partial curve, poor fit]
Potency [2]: inconclusive: 6.94 µM [activator] and inconclusive: 6.46 µM [activator, full curve]
Potency [3]: inconclusive: 0.576 µM [rising, partial curve, poor fit]
Potency [4]: inconclusive: 0.81 µM [cytotoxic, full curve, poor fit]
Potency [5]: inconclusive: 18.1 µM [rising, partial curve] and inconclusive: 18.2 µM [rising, partial curve]
Potency [6]: inconclusive: 5.9 nM [inhibitor, full curve, poor fit] and inconclusive: 667 nM [inhibitor, partial curve, poor fit]
activation [7, 17]: inconclusive: 12.7%
activation ([7]; at 92.4 µM (top of the series)): inactive: 13.9%
Potency [8]: inconclusive: 2.42 µM [inhibitor, full curve, poor fit]
activation [8]: inconclusive: -19.1%
activity change, negative = inhibition [9]: inconclusive: -31.9%

CNP(=O)(OC)Oc1ccc(C(C)(C)C)cc1Cl (stereo not given)
Potency [1, 16]: active: 3.24 µM
Potency [2]: inconclusive: 1.02 µM [fluorescent, full curve]

COP(=S)(OC)SCn1nnc2ccccc2c1=O
Potency [1, 16]: active: 12.6 µM
activation [1, 16]: inconclusive: 3.14%
Potency [2]: inconclusive: 711 nM [fluorescent, full curve] and inconclusive: 1.62 µM [fluorescent, partial curve]
Potency [5]: inconclusive: 20 µM [rising, full curve, poor fit]
Potency [10]: inactive
Potency [11]: inactive

O=C(Nc1ccc(Br)cc1)c1cc(Br)cc(Br)c1O
Potency [12]: inconclusive: 15.5 µM [activator, single point]
Potency [13]: inconclusive: 1.44 µM [cytotoxic, full curve, poor fit] and active: 3.97 µM
Potency [5]: inconclusive: 1.15 µM [fluorescent, full curve] and inconclusive: 646 nM [fluorescent, full curve]
Potency [14]: inconclusive: 8.63 µM [inhibitor, full curve]
Potency [8]: inconclusive: 30.5 µM [inhibitor, full curve, poor fit]
activation [8]: inconclusive: -31.6%

O=[N+]([O-])c1cc(C(F)(F)F)c(Cl)c([N+](=O)[O-])c1Nc1ncc(C(F)(F)F)cc1Cl
Potency [12]: active: 1.23 µM
Potency [3]: active: 45.8 µM
Potency [4]: active: 25.7 µM
Potency [13]: active: 40.8 µM
Potency [6]: inconclusive: 37.5 µM [inhibitor, partial curve, poor fit]
Potency [7, 17]: inconclusive: 9.69 µM [rising, partial curve]
Potency [11]: inconclusive: 10.9 µM [rising, partial curve]
activity change, negative = inhibition [14]: inconclusive: -73.7%
Potency [8]: inconclusive: 68.6 µM [inhibitor, partial curve]
Potency [9]: inactive

CCOP(=S)(OCC)SC(CCl)N1C(=O)c2ccccc2C1=O (stereo not given)
Potency [1, 16]: inconclusive: 16.2 µM [fluorescent, partial curve]
Potency [2]: inconclusive: 1.02 µM [fluorescent, full curve]
Potency [3]: inactive
Potency [5]: inconclusive: 14.5 µM [rising, full curve]
Potency [15]: inconclusive: 33.4 µM [inhibitor, partial curve, poor fit]
Potency [7, 17]: inconclusive: 54.5 µM [rising, partial curve]
activity change, negative = inhibition [11]: inconclusive: 15.6%
activity change, negative = inhibition [14]: inconclusive: 1.05%
Potency [8]: inconclusive: 54.5 µM [activator, single point]

CC(C)c1ccc(NC(=O)N(C)C)cc1
Potency [12]: inactive
activation [8]: inconclusive: -13.2%

CCS(=O)(=O)CCSP(=O)(OC)OC
activation [1, 16]: inconclusive: 21.1%
Potency [2]: inconclusive: 7.25 µM [fluorescent]

Cc1cc(C(F)(C(F)(F)F)C(F)(F)F)ccc1NC(=O)c1cccc(I)c1C(=O)NC(C)(C)CS(C)(=O)=O
activation [1, 16]: inconclusive: 25.6% [at 30.3 µM]
activation [2]: inconclusive: 7.19% [at 30.3 µM]
Potency [13]: inconclusive: 9.19 µM [rising, partial curve]
Potency [5]: inconclusive: 10.3 µM [rising, full curve]
Potency [14]: inactive

CC1=C2[C@H]3OC(=O)[C@@H](C)[C@@H]3CC[C@@]2(C)C=CC1=O
Potency [1, 16]: inactive

CCOC(=S)S
activation [1, 16]: inconclusive: -11.4%
activation ([1]; at 66 µM (top of the series)): inactive: -3.99%
Potency [3]: inconclusive: 54.6 µM [cytotoxic, single point]
Potency [6]: inactive
Potency [11]: inactive
activation [8]: inconclusive: 9.31% and inconclusive: 18%
